Some of the results follow.

Chains of the proteins cited; added tags and fusions are not shown.
UniProt Q0JBA9, entry or part of it: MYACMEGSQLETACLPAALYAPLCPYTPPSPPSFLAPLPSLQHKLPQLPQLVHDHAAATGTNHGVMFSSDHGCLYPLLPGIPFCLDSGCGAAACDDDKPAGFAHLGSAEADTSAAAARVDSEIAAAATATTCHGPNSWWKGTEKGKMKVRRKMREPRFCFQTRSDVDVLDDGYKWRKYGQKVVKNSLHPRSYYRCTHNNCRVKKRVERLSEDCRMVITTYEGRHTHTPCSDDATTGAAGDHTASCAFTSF

This is an account of results in paper PMC7819943, “Rice protein-binding microarrays: a tool to detect cis-acting elements near promoter regions in rice”.

In the assay the target is OsWRKY34 (Oryza sativa, UniProt Q0JBA9 1-250). Description: protein-binding microarray (RPBM); PBS, 2% BSA, 51.3 ng/ul salmon testes DNA, 50 uM zinc acetate, 200 nM TF, 25 C, 1 h; high values mean tight binding. As to conditions: protein: recombinant; tags: N-terminal polyhistidine and DsRed monomer fusion (pET32a); label: CyDye5-dUTP incorporated in the synthesized complementary strand; 3' TTTTT single-stranded linker to array surface; dsDNA, one strand shown. The gist of the method:
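Transcription factors were made in E. coli BL21-CodonPlus as N-terminal fusions to a polyhistidine tag and DsRed, then purified on Ni–NTA. After primer extension with Cy5-dUTP and blocking with 2% BSA, a custom Agilent array was exposed for 1 h at 25 °C to 200 nM protein in PBS, 2% BSA, salmon testes DNA and 50 µM zinc acetate. Washed arrays were scanned on an Axon 4000B, and the binding signal is per-feature fluorescence intensity in arbitrary units.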
For the sequence “GCTCTCTATTTTTTTTTTCTGCGGAATGATTTCATTTTGACGGAGTCACCTAGTGCAG”, the binding signal is 11900 fluorescence intensity (a.u.). The value for “TTATGCCTTTGCAAACTGCAACCTCCGCTAATCATTCATGCGGAGTCACCTAGTGCAG” was 8460 fluorescence intensity (a.u.); that for “TCTGCCGCCACCATCACCGCACCTCGCCACCGTCGCAACACGGAGTCACCTAGTGCAG” was 9520 fluorescence intensity (a.u.). In the case of “ATGTGTTTTTTGTTCGATGCATCTTCTCTTCTTTGTGTTACGGAGTCACCTAGTGCAG”, the binding signal is 12600 fluorescence intensity (a.u.). The value for “CCGTCCGTCTTATTTAAAAATTTTTATGATTAATATTTTTCGGAGTCACCTAGTGCAG” was 9120 fluorescence intensity (a.u.); that for “CCGCAAGTACGCTTTTTTCTGCAGGCTCATCAATCCATGCCGGAGTCACCTAGTGCAG” was 10200 fluorescence intensity (a.u.); that for “CTTCCCATTTCCATCTCCGTCGAGCACCCAGCCCCTTCCTCGGAGTCACCTAGTGCAG” was 8900 fluorescence intensity (a.u.). Turning to “ATGTACGCGTCACTAAATTTTGTTGCTCCCTGTCGTCACTCGGAGTCACCTAGTGCAG”, the binding signal was 8500 fluorescence intensity (a.u.). The figure for “GAAAACTGTTTACTACGTCCCGTATACGGCTGGTCCGTTTCGGAGTCACCTAGTGCAG” is 8110 fluorescence intensity (a.u.); for “GTGGACAACCCACCTGCTGTAGTACGCATTTCCATCTCCTCGGAGTCACCTAGTGCAG” it is 8970 fluorescence intensity (a.u.); for “GATTCTAGTCAAATTTCTTTTAATTTTGACTACGTTTATACGGAGTCACCTAGTGCAG” it is 11200 fluorescence intensity (a.u.). Consider “TTTCTCAAAATCTATGTGTCTAGCCGGTTTTTACCGGTTCCGGAGTCACCTAGTGCAG”, for which the binding signal is 8550 fluorescence intensity (a.u.). The value for “TCTCCGCCGCAACCACCGGCACCACTCACGCATTGGAAAGCGGAGTCACCTAGTGCAG” was 9830 fluorescence intensity (a.u.); that for “TCCACCCGCCGTCAATGACTTTCCTGAACAACTGATCCGCCGGAGTCACCTAGTGCAG” was 9460 fluorescence intensity (a.u.).

Take “ATCGGATTTCTTCTTCTACCTCTAGCTAGCTCCGATCCGTCGGAGTCACCTAGTGCAG”: the binding signal was 9900 fluorescence intensity (a.u.). The figure for “CACTCGGCTCGGCTTAGCCCCGTTGTCACTCGGCTCGTTTCGGAGTCACCTAGTGCAG” is 12100 fluorescence intensity (a.u.). The figure for “AACACAGCCTACATTTCTGGCGAAATTTGTTACGTGACATCGGAGTCACCTAGTGCAG” is 8090 fluorescence intensity (a.u.); for “ATGTCACCAAGCGGTATAGGTCTGAATGTATTGATGTGCCCGGAGTCACCTAGTGCAG” it is 9370 fluorescence intensity (a.u.). The figure for “TGTGGATGAGTGTGTGTGTGTGGAGATCAGTGGGAGACCACGGAGTCACCTAGTGCAG” is 8170 fluorescence intensity (a.u.). In the case of “ACCCGCCGTCTGCCACGTCAGCTTGCCGCCCACCATTAGACGGAGTCACCTAGTGCAG”, the binding signal was 8040 fluorescence intensity (a.u.). On to “GTGCACCACCCGCCGCCCACCGTCGACCTCGCCGCCAACCCGGAGTCACCTAGTGCAG”, for which the binding signal was 10400 fluorescence intensity (a.u.). Regarding “TCTAGCCCGATCGTAACATTAGGTATCAGAGCCACCAATCCGGAGTCACCTAGTGCAG”, the binding signal is 9190 fluorescence intensity (a.u.). The value for “TTCGGTTTTTCTCTTCATCATTTCTCTTTATTTCTTTCTCCGGAGTCACCTAGTGCAG” was 9290 fluorescence intensity (a.u.); that for “TCATGTTACCAAACAAATCCGGAATTTCTCTTTCTACACACGGAGTCACCTAGTGCAG” was 9620 fluorescence intensity (a.u.). In the case of “TAGCCCGGCCGCACAAGTCGCCACCACCACCACCGCACCCCGGAGTCACCTAGTGCAG”, the binding signal was 10400 fluorescence intensity (a.u.).

As for “TTTCTAGATGTCTACGCGTTATCAGCATGTTGATGTCTACCGGAGTCACCTAGTGCAG”, the binding signal is 8460 fluorescence intensity (a.u.). For the sequence “ATAGTTGGTGTGTTTATGTAGACTTATTCTATTTTGACGTCGGAGTCACCTAGTGCAG”, the binding signal was 10400 fluorescence intensity (a.u.). The figure for “GGGTCAGAGGGTAGGTTATTGTTGGGTAGGTGTGGAATTGCGGAGTCACCTAGTGCAG” is 9800 fluorescence intensity (a.u.); for “CTACTGGGTGGTGTCTGGCGGGGATGTGCTCGAGCAAGATCGGAGTCACCTAGTGCAG” it is 9900 fluorescence intensity (a.u.). For “TAGTTGACCGTGTATTTTCTATAAAAATGACCATTTTACCCGGAGTCACCTAGTGCAG”, the binding signal was 8310 fluorescence intensity (a.u.). For the sequence “GTTACTACTGCTTTTGTGGTCTCTTATTCTTCTTATTATTCGGAGTCACCTAGTGCAG”, the binding signal is 8660 fluorescence intensity (a.u.). The value for “GCCCAAGACCTTGCTCCATCTCTTGCCATCAGCCCGAGACCGGAGTCACCTAGTGCAG” was 8150 fluorescence intensity (a.u.). In the case of “GCCACAATATTCTTTGCATCTGCATATTCTTTTCTCTGTTCGGAGTCACCTAGTGCAG”, the binding signal was 8090 fluorescence intensity (a.u.).

“CTGCACGTTCATAATCATAAACTAATTTTGGCCCATTTGCCGGAGTCACCTAGTGCAG”: the binding signal was 8870 fluorescence intensity (a.u.).

As to “TTGTGGACCAGTGTGTTGGCGGCCTCCTTCCAAGTGGTGTCGGAGTCACCTAGTGCAG”, the binding signal is 8210 fluorescence intensity (a.u.). With “GTGCTTCTGCTTCGTAGTTAAGCTTTTCTAGTTTTATTTTCGGAGTCACCTAGTGCAG”, the binding signal is 8720 fluorescence intensity (a.u.).

In the case of “GCTTACCTTACAGTGATGGTTCTATGTCAAAGCTGTGGGGCGGAGTCACCTAGTGCAG”, the binding signal is 8910 fluorescence intensity (a.u.).

Turning to “ACGTCCACCTCCGCATCGGCCCCTACGTCTGCGCCGAGTGCGGAGTCACCTAGTGCAG”, the binding signal is 8340 fluorescence intensity (a.u.). For “GGATGGCCACGCTTTCCTCGCCCGCGCGCTTTGACCAAACCGGAGTCACCTAGTGCAG”, the binding signal was 13900 fluorescence intensity (a.u.). With “TTTTCTGCACACGCTTCCCAAATCGTTAAATTGTGTGTTTCGGAGTCACCTAGTGCAG”, the binding signal was 10300 fluorescence intensity (a.u.).

Turning to “TCCACACTCATAAGGGGATAGTCTCTCAGGTGCATTTTTTCGGAGTCACCTAGTGCAG”, the binding signal was 9040 fluorescence intensity (a.u.). The figure for “CTTTGTATCTGACCTACTGTTGTTCTGACCAGTCTTGGCCCGGAGTCACCTAGTGCAG” is 9890 fluorescence intensity (a.u.).
